Laboratory results taken from PMC6284747.
No constants are given. Whether binding was seen depends on the method and setting. Some results given as binding are weak or reduced against the parent protein; the word gives no strength.

T1: Atox1 purified protein (recombinant human Atox1) (human), O00244
T1 chain: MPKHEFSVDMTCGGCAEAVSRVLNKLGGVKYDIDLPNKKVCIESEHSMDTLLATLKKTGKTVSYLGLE

T2: Atox1 (endogenous, SH-SY5Y neuroblastoma cells) (human (endogenous in SH-SY5Y)), O00244
T2 chain: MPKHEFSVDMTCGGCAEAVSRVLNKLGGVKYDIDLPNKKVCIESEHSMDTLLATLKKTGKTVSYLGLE


Experiments:
[1] = molecular target: T1, Atox1 purified protein (recombinant …); assay: non-reducing Tricine SDS-PAGE with Western blot; Atox1 2.2x10^-5 M incubated in PBS with Cu(II) (ratio 1:1) and H2O2 (2.5-fold excess with respect to the cysteine residues of Atox1) for 20 hrs; 15% Tricine gel in non-reducing conditions, polyclonal anti-Atox1 blot; both purified; details: remark: other sources report otherwise
[2] = molecular target: T2, Atox1 (endogenous, SH-SY5Y …); assay: SDS-PAGE with Western blot of cell lysates; SH-SY5Y lysates (RIPA buffer) after 48 hrs of treatment with phendione or cuproindione at IC50 concentration, or 50 uM BCS; polyclonal anti-Atox1 blot, bands at higher MW; details: remark: other sources report otherwise

Row | Binder | binding [1] | binding [2]
1 | Atox1 purified protein (recombinant human Atox1), O00244 1-68 (protein) MPKHEFSVDMTCGGCAEAVSRVLNKLGGVKYDIDLPNKKVCIESEHSMDTLLATLKKTGKTVSYLGLE | binds | –
2 | Atox1 (endogenous, SH-SY5Y neuroblastoma cells), O00244 1-68 (protein) MPKHEFSVDMTCGGCAEAVSRVLNKLGGVKYDIDLPNKKVCIESEHSMDTLLATLKKTGKTVSYLGLE | – | binds
